{"source": "patent US20090197842A1", "about": "“Therapeutic Agent for Neuropathic Pain” (JAPAN SCIENCE AND TECHNOLOGY CORPORATION, priority 2005, published 2009)", "tested_on": "pain hypersensitivity model rats", "assay": "Mechanical stimulation test (Dynamic Plantar Aesthesiometer), pain threshold of left plantar", "format": "in vivo", "details": "intraperitoneal, versus 0.5 w/v % CMC-Na control, Dunnett's test", "protocol": "As experimental animals, pain hypersensitivity model rats obtained by conducting complete ligation on L5/L6 spinal nerves of 6-week-old male rats were used.\nMechanical stimulation tests were carried out using Dynamic Plantar Aesthesiometer (37400, Ugo Basile), and thermal stimulation tests were carried out using a plantar thermal stimulation tester (Plantar Test 7370, Ugo Basile). The pain threshold of the feet of each model animal was measured, and the animals were divided into groups using Preclinical Package Version 5.0 (SAS Institute Japan), such that the pain thresholds are uniform among the groups as measured prior to administration on each day of the experiment.\nThe test substance was prepared as follows. The base material was ground with an agate mortar and a pestle, and 0.5 w/v % carboxyrnethylcellulose sodium (CMC-Na) as a medium was gradually added thereto to form a uniform suspension. […]\nGroups each including five pain hypersensitivity model male rats (355.8 to 457.9 g) were used. Before administration of ICI182.780, and at 30 minutes, 60 minutes and 90 minutes after administration of ICI182.780, the pain threshold of the left plantar of each rat was measured using a stimulating apparatus which had been set such that the maximum pressure would be 15.0 g and the maximum pressure would be reached in 20 seconds. […]", "note": "For at least one compound, name, drawing or mass did not settle the structure."}
{"smiles": "CC1(C)O[C@@H]2C[C@H]3[C@@H]4CCC5=CC(=O)C=C[C@]5(C)[C@@]4(F)[C@@H](O)C[C@]3(C)[C@]2(C(=O)CO)O1", "note": "[triamcinolone acetonide]", "values": [{"measurement": "effect of administration on pain threshold (in words)", "result": "significantly increased the pain threshold"}]}
